This assay deals with T1, TRIM18 (endogenous, mouse bone marrow-derived macrophages) (mouse (endogenous in BMDM)) (UniProt O70583).
T1 sequence: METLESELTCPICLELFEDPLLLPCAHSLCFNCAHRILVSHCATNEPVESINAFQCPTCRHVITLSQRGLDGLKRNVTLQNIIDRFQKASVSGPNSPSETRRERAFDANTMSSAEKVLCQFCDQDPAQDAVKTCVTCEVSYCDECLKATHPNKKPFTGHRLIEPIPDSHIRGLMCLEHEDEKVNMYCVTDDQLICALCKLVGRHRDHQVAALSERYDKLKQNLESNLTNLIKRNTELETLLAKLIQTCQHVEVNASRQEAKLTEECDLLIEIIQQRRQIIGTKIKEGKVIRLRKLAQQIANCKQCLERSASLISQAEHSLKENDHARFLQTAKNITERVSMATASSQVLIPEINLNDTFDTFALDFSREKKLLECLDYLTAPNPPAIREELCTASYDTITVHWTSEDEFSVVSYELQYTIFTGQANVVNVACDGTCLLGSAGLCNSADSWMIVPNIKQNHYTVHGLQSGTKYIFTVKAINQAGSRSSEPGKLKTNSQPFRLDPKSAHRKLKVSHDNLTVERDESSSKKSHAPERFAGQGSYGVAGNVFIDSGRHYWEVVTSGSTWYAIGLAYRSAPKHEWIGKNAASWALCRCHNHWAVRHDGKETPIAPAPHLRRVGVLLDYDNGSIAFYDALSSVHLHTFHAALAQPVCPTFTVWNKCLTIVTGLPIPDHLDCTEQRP
The assay can be described thus: affinity purification with mass spectrometry; immunoprecipitation with an antibody specific to TRIM18 from lysates of BMDM, protein sequencing by liquid chromatography-mass spectrometry.

Data on one molecule can be found in publication PMC9339186.

These are yes or no findings as the source states them, for the method shown. In cells and extracts the contact can be indirect. These calls come from enrichment with a bait or labelling near it, and not all partners need be listed.

B1: protein phosphatase, magnesium-dependent 1A (PPM1A; endogenous, mouse bone marrow-derived macrophages) (enzyme, UniProt P49443 1-382)
chain: MGAFLDKPKMEKHNAQGQGNGLRYGLSSMQGWRVEMEDAHTAVIGLPSGLETWSFFAVYDGHAGSQVAKYCCEHLLDHITNNQDFRGSAGAPSVENVKNGIRTGFLEIDEHMRVMSEKKHGADRSGSTAVGVLISPQHTYFINCGDSRGLLCRNRKVHFFTQDHKPSNPLEKERIQNAGGSVMIQRVNGSLAVSRALGDFDYKCVHGKGPTEQLVSPEPEVHDIERSEEDDQFIILACDGIWDVMGNEELCDFVRSRLEVTDDLEKVCNEVVDTCLYKGSRDNMSVILICFPSAPKVSAEAVKKEAELDKYLESRVEEIIKKQVEGVPDLVHVMRTLASENIPSLPPGGELASKRNVIEAVYNRLNPYKNDDTDSASTDDMW
As for B1, the binding entry is listed as “binds”.
